This note sets out measurements from PMC6560169.

Amino acid sequences for entries named in this document (tags omitted). Residues count along the entry.
UniProt Q9I6M8, residues 22-165: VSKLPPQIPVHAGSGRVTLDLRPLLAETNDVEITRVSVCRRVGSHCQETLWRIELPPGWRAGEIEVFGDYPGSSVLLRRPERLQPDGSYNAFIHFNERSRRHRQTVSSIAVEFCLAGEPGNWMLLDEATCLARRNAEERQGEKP

Test [1] deals with Tli3 (PA0261) after its signal sequence, fused upstream of the T18 or T25 domain (Pseudomonas aeruginosa) (UniProt Q9I6M8). Kind of test: two-hybrid; bacterial adenylate cyclase two-hybrid (BACTH): fusions to T18 and T25 of the Bordetella adenylate cyclase in E. coli BTH101, spotted on X-gal/IPTG plates, 30°C.
The target of test [2] is Tli3 (PA0261) after its signal sequence, fused downstream of the T18 or T25 domain (Pseudomonas aeruginosa) (UniProt Q9I6M8). Described as above.

Results are given in words; binding and its absence hold for the method and conditions named. Some entries that bind do so weakly or less than the wild type.

For the substance “Tli3 (PA0261) after its signal sequence, fused downstream of the T18 or T25 domain (from UniProt Q9I6M8 22-165)”, the binding result in test [1] and in test [2] was “binds” in each case.

On to “Tli3 (PA0261) after its signal sequence, fused upstream of the T18 or T25 domain (from UniProt Q9I6M8 22-165)”, for which, in test [1], the binding entry is recorded as “binds”.
